Experimental data as given in PMC4762897.
Results are given in words; binding and its absence hold for the method and conditions named. In cells and extracts the contact can be indirect. Some binding calls cover weakened binding; strength is not graded here. One block for each molecule: values may come before it.

Amino acid sequences for entries named in this document (tags omitted).
UniProt Q00899: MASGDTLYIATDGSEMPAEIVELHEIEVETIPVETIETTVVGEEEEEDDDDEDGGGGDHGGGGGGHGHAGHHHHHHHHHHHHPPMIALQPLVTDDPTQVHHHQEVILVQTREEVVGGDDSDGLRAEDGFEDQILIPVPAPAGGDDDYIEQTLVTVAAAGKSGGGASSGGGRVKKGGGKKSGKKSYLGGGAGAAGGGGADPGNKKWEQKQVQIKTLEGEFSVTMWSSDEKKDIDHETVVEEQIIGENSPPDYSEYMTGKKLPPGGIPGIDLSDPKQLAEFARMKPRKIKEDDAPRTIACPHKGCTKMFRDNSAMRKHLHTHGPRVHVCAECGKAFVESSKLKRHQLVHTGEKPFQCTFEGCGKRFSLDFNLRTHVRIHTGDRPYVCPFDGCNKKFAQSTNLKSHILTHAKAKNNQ
UniProt P97471: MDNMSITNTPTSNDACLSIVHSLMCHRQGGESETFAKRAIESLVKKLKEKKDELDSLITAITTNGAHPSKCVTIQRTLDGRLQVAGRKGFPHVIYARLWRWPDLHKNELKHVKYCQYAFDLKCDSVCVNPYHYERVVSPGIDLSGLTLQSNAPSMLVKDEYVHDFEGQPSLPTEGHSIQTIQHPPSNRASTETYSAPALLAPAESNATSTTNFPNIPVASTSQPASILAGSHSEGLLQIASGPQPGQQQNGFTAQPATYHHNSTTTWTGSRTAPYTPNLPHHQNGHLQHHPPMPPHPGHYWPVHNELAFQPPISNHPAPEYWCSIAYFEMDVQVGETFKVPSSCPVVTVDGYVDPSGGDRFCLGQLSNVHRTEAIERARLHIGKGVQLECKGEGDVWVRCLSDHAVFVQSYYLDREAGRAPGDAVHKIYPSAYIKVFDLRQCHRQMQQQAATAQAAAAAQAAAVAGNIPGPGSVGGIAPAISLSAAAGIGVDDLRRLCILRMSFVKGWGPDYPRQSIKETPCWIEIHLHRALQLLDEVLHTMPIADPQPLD
UniProt Q62432: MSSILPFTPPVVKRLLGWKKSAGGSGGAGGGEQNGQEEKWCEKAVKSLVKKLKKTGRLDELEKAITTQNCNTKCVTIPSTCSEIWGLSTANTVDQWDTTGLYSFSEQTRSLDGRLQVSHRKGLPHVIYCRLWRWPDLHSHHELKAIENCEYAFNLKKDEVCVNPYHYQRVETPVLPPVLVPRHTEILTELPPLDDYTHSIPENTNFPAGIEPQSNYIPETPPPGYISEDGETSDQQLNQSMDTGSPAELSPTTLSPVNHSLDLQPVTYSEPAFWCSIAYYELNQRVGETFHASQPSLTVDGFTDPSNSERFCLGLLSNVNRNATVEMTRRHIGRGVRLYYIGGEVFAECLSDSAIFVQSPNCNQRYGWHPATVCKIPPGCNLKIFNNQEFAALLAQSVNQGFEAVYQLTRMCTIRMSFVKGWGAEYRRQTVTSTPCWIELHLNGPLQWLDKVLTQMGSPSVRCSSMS
UniProt Q8BUN5: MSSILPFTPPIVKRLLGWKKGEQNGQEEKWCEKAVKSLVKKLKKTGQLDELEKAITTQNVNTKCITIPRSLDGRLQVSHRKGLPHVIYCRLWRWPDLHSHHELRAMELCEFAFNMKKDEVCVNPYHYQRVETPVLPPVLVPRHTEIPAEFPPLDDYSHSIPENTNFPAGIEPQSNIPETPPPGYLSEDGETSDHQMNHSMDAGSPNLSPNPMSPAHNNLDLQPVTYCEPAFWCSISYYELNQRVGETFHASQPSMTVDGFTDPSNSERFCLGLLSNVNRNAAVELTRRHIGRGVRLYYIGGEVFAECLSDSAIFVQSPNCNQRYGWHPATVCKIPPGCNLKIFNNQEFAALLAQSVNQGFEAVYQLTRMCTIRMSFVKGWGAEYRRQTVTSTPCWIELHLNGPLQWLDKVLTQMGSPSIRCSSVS

Legend:
YY1 (mouse) [1] = target: YY1 (mouse) (UniProt Q00899); experiment: co-IP; HEK293T transfected with Smad3-, Smad4- or Foxp3-expression vector together with FLAG-tagged YY1 or YY1 domain mutants; lysates immunoprecipitated with anti-FLAG; immunoblot with anti-Smad3, anti-Smad4, anti-Foxp3 or anti-FLAG
YY1 (mouse) [2] = target: YY1 (mouse) (UniProt Q00899); experiment: co-IP; HEK293T transfected with expression vectors; lysates pre-cleared with control IgG and protein A/G, incubated overnight at 4 °C with anti-Smad3, anti-Smad4, anti-Foxp3, anti-YY1 or control IgG, then protein A/G beads; immunoblot

binding (YY1 (mouse) [1]): binds
Molecule: Smad4 (from UniProt P97471 1-551)

binding (YY1 (mouse) [1]): binds
binding (YY1 (mouse) [2]): binds
B1: Foxp3 (protein, UniProt Q99JB6 1-417)
chain: MPNPRPAKPMAPSLALGPSPGVLPSWKTAPKGSELLGTRGSGGPFQGRDLRSGAHTSSSLNPLPPSQLQLPTVPLVMVAPSGARLGPSPHLQALLQDRPHFMHQLSTVDAHAQTPVLQVRPLDNPAMISLPPPSAATGVFSLKARPGLPPGINVASLEWVSREPALLCTFPRSGTPRKDSNLLAAPQGSYPLLANGVCKWPGCEKVFEEPEEFLKHCQADHLLDEKGKAQCLLQREVVQSLEQQLELEKEKLGAMQAHLAGKMALAKAPSVASMDKSSCCIVATSTQGSVLPAWSAPREAPDGGLFAVRRHLWGSHGNSSFPEFFHNMDYFKYHNMRPPFTYATLIRWAILEAPERQRTLNEIYHWFTRMFAYFRNHPATWKNAIRHNLSLHKCFVRVESEKGAVWTVDEFEFRKKR

Further lines, the molecule ahead of its results:

Molecule: Smad2 (from UniProt Q62432 1-467)
binding (YY1 (mouse) [1]): binds

Molecule: Smad3 (from UniProt Q8BUN5 1-425)
binding (YY1 (mouse) [1]): binds
